From paper PMC5543143, “Structural Basis for the Mechanism of ATP-Dependent Acetone Carboxylation” (Scientific Reports, 2017)
These are yes or no findings as the source states them, for the method shown. Some entries that bind do so weakly or less than the wild type. Tags and fused reporters may be left off the sequences shown.

T1: acetone carboxylase α subunit (AcxB) from Xanthobacter autotrophicus Py2, recombinant (Xanthobacter autotrophicus Py2) (UniProt Q8RM03)
T1 sequence: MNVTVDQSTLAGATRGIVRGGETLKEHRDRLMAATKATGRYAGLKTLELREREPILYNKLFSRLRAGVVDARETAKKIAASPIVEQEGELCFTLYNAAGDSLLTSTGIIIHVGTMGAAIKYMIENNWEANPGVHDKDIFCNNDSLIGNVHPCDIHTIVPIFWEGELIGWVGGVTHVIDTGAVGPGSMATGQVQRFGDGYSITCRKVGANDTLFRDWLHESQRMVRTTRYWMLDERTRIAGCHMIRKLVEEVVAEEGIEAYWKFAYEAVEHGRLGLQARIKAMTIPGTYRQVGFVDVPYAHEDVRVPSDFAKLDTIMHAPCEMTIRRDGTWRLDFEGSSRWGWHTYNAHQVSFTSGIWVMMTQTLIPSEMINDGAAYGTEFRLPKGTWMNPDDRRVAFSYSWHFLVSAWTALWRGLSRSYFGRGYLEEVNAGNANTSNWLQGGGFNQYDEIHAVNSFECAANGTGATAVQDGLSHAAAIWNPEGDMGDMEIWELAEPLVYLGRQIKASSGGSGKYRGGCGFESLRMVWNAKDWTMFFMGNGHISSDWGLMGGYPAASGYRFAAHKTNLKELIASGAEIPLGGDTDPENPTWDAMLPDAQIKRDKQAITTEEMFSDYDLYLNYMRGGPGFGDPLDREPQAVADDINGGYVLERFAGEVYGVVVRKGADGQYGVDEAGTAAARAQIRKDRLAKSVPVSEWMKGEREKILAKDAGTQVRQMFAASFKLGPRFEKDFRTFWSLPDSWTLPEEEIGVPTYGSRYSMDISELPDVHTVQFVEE

T2: acetone carboxylase β subunit (AcxA) from Xanthobacter autotrophicus Py2, recombinant, His-tagged (Xanthobacter autotrophicus Py2) (UniProt Q8RM04)
T2 sequence: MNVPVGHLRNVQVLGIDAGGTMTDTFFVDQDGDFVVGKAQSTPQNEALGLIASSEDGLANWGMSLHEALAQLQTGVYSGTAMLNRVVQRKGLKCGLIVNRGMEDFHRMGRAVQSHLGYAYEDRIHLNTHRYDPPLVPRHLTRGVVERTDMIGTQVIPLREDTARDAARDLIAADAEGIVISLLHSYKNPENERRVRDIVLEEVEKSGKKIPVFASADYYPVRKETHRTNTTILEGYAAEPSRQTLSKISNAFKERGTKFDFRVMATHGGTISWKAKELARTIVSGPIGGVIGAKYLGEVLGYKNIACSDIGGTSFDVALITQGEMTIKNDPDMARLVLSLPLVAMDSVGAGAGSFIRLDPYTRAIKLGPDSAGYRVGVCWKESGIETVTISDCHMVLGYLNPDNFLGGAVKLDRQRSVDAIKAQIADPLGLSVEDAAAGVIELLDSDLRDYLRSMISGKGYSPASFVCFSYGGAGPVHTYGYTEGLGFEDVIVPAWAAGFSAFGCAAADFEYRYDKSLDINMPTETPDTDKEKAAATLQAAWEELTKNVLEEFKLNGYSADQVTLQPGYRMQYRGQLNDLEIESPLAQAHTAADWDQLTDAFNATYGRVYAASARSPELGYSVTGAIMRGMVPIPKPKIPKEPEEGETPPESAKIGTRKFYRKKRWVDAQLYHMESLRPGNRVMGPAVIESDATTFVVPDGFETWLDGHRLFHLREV


What was measured:
[1] = target: T1, acetone carboxylase α subunit (AcxB) from Xanthobacter autotrophicus Py2, recombinant (Xanthobacter autotrophicus Py2); assay: crystal structure; recombinant AC (αβγ)2, ligand-free and AMP-bound; hanging drop, 25 °C, 14-18% PEG 3350, 0.2 M MgSO4, pH 6.3; nucleotide additives 5 mM; SAD with selenium; both purified
[2] = target: T2, acetone carboxylase β subunit (AcxA) from Xanthobacter autotrophicus Py2, recombinant, His-tagged (Xanthobacter autotrophicus Py2); assay: as above

Binder | binding [1] | binding [2]
acetone carboxylase β subunit (AcxA) from Xanthobacter autotrophicus Py2, recombinant, His-tagged (protein, UniProt Q8RM04 1-717) MNVPVGHLRNVQVLGIDAGGTMTDTFFVDQDGDFVVGKAQSTPQNEALGLIASSEDGLANWGMSLHEALAQLQTGVYSGTAMLNRVVQRKGLKCGLIVNRGMEDFHRMGRAVQSHLGYAYEDRIHLNTHRYDPPLVPRHLTRGVVERTDMIGTQVIPLREDTARDAARDLIAADAEGIVISLLHSYKNPENERRVRDIVLEEVEKSGKKIPVFASADYYPVRKETHRTNTTILEGYAAEPSRQTLSKISNAFKERGTKFDFRVMATHGGTISWKAKELARTIVSGPIGGVIGAKYLGEVLGYKNIACSDIGGTSFDVALITQGEMTIKNDPDMARLVLSLPLVAMDSVGAGAGSFIRLDPYTRAIKLGPDSAGYRVGVCWKESGIETVTISDCHMVLGYLNPDNFLGGAVKLDRQRSVDAIKAQIADPLGLSVEDAAAGVIELLDSDLRDYLRSMISGKGYSPASFVCFSYGGAGPVHTYGYTEGLGFEDVIVPAWAAGFSAFGCAAADFEYRYDKSLDINMPTETPDTDKEKAAATLQAAWEELTKNVLEEFKLNGYSADQVTLQPGYRMQYRGQLNDLEIESPLAQAHTAADWDQLTDAFNATYGRVYAASARSPELGYSVTGAIMRGMVPIPKPKIPKEPEEGETPPESAKIGTRKFYRKKRWVDAQLYHMESLRPGNRVMGPAVIESDATTFVVPDGFETWLDGHRLFHLREV | binds | –
acetone carboxylase γ subunit (AcxC) from Xanthobacter autotrophicus Py2, recombinant (protein, UniProt Q8RM02 1-168) MAYTRSKIVDLVDGKIDPDTLHQMLSTPKDPERFVTYVEILQERMPWDDKIILPLGPKLFIVQQKVSKKWTVRCECGHDFCDWKDNWKLSARVHVRDTPQKMEEIYPRLMAPTPSWQVIREYFCPECGTLHDVEAPTPWYPVIHDFSPDIEGFYQEWLGLPVPERADA | binds | binds
